Assay results from PMC5021942.

Chains of the proteins cited; added tags and fusions are not shown. Lines headed by an entry give the natural chain unless they say otherwise; changes in a name come on top.
UniProt Q9NPB6: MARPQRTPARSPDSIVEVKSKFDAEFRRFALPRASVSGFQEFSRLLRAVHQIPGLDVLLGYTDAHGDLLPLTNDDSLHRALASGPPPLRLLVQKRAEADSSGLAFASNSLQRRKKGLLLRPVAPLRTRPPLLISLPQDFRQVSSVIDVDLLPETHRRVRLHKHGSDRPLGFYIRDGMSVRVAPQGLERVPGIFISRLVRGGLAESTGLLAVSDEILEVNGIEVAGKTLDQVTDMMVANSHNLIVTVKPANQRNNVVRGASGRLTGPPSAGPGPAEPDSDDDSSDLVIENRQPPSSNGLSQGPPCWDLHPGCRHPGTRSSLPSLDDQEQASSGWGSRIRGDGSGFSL

Target: T1, human Hook2 Cter (amino acids 438 to 719), LexA two-hybrid bait (human) (UniProt Q96ED9)
T1 sequence: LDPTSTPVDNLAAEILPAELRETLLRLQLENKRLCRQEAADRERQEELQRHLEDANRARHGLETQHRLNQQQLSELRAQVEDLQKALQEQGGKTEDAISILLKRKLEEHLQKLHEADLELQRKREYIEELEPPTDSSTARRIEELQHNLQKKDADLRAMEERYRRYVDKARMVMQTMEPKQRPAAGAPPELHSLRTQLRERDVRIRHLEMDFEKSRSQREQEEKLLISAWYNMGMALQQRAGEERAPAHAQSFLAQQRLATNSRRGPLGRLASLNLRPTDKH
Test: two-hybrid; L40 yeast, LexA system; Hook2 Cter in pBTM116 as bait, PAR6α variants in pACT2; selection without tryptophan, leucine and histidine with 10 mM and 5 mM 3-aminotriazole; second selection on X-Gal medium

For “human PAR6α ΔPDZ, two-hybrid prey (from UniProt Q9NPB6)”, the binding was “binds”.

Results are given in words; binding and its absence hold for the method and conditions named. Binding can be weak; no strength is given.
